Reference: the supplement of paper PMC8104966
The other results are listed elsewhere or left out. Single values are uncertain here, since repeats match poorly.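 U2OS cells carrying ACE2 were mixed with U2OS cells carrying full-length spike, and fusion was scored by imaging as the share of nuclei showing both cell types' fluorescent markers. A compound counts as an inhibitory hit when it is non-toxic and its fusion z-score falls below -3, meaning more than three standard deviations below the plate's DMSO wells.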

Each compound was assayed on U2OS ACE2 x SARS-CoV-2 spike co-culture (assay: cell-cell fusion (fraction fused) z-score vs plate DMSO control; higher = more fusion). Conditions: 30 µM; 5 h; toxicity class: non-toxic, passed QC.

| SMILES | cell-cell fusion (z-score) |
| --- | --- |
| CC(=O)Oc1ccc2c(C)cc(=O)oc2c1 | inactive: 2.04 |
| Nc1ccn(C2O[C@H](CO)[C@@H](O)[C@H]2O)c(=O)n1 (stereo partly drawn) | inactive: 2.59 |
| O=C(O)CCCN1CCC(O[C@@H](c2ccc(Cl)cc2)c2ccccn2)CC1.O=S(=O)(O)c1ccccc1 [Bepotastine Besilate] | inactive: 1.28 |
| CCCCNc1cc(C(=O)O)cc(S(N)(=O)=O)c1Oc1ccccc1 [Bumetanide] | inactive: 2.08 |
| Cc1cc(Cl)ccc1OCCCC(=O)NO [Droxinostat] | inactive: 0.0624 |
| CNC(=O)c1cc(Oc2ccc(NC(=O)Nc3ccc(Cl)c(C(F)(F)F)c3)c(F)c2)ccn1 [Regorafenib (BAY 73-4506)] | inactive: 1.52 |
| NC(=O)c1ccccc1O | inactive: 0.359 |
| Cc1ncc([N+](=O)[O-])n1CCO | inactive: 0.599 |
| NNC(=O)c1ccncc1 | inactive: -0.639 |
| CCCCOC(=O)c1ccc(O)cc1 | inactive: 2.28 |
| CC1(C)CCC2=C(O1)c1ccccc1C(=O)C2=O [beta-Lapachone] | inactive: -0.476 |
| CC1(C)CCC2=C(O1)c1ccccc1C(=O)C2=O [beta-LAPACHONE] | inactive: -2.6 |
| Cc1[nH]c2ccccc2c1CCNCc1ccc(/C=C/C(=O)NO)cc1 [Panobinostat] | inactive: 1.98 |
| COC(=O)[C@H]1[C@H]2C[C@@H]3c4[nH]c5cc(OC)ccc5c4CCN3C[C@H]2C[C@@H](OC(=O)c2cc(OC)c(OC)c(OC)c2)[C@@H]1OC [Reserpine] | inactive: 1.27 |
| CC(C)OC(=O)C1=CN(C(=O)c2ccc(F)c(F)c2)CC(C)(C)c2c1[nH]c1ccccc21 | inactive: 1.98 |
| O=C([O-])Cc1ccccc1Nc1c(Cl)cccc1Cl.[K+] [Diclofenac Potassium] | inactive: 2.67 |
| CCOc1ccc2ccccc2c1NC(=O)[C@@H]1C(=O)N2C(C(=O)[O-])C(C)(C)S[C@H]12.[Na+] (stereo partly drawn) | inactive: 0.445 |
| Oc1cccc2c(O)nccc12 [1,5-Isoquinolinediol] | inactive: 1.15 |
| N.N.[Cl][Pt][Cl] | inactive: 0.609 |
| N.N.[Cl][Pt][Cl] [Cisplatin] | inactive: 0.564 |
| O=Nc1ccc2oc(=O)ccc2c1 [6-Nitroso-1,2-benzopyrone] | inactive: 2.8 |
| O=C(NCCCNc1nc(Nc2cccc(NC(=O)N3CCCC3)c2)ncc1I)c1cccs1 | inactive: 1.97 |
| Cc1ccccc1C(OCCN(C)C)c1ccccc1.Cl (stereo not drawn) [Orphenadrine hydrochloride] | inactive: 2.25 |
| CC(=O)Oc1ccc(-c2coc3c4c(c(CC=C(C)C)c(OC(C)=O)c3c2=O)OC(C)(C)C=C4)cc1OC(C)=O | inactive: 3.29 |
| N#CC[C@H](C1CCCC1)n1cc(-c2ncnc3[nH]ccc23)cn1.O=P(O)(O)O | inactive: -0.275 |

| SMILES | cell-cell fusion (z-score) |
| --- | --- |
| CC(C)(C)CC(=O)OCC(=O)[C@@]1(O)CCC2C3CCC4=CC(=O)C=C[C@]4(C)C3[C@@H](O)C[C@@]21C (stereo partly drawn) | inactive: 1.24 |
| CCC(CC)[C@H](NC(C)=O)[C@@H]1[C@H](O)[C@@H](C(=O)O)C[C@H]1NC(=N)N.O.O.O [Peramivir Trihydrate] | inactive: 0.414 |
| Cl.Cl.OCCN1CCN(CCCN2c3ccccc3Sc3ccc(C(F)(F)F)cc32)CC1 | inactive: 2.75 |
| CCC(C)[C@H]1O[C@]2(C=C[C@@H]1C)C[C@@H]1C[C@@H](C/C=C(\C)[C@@H](OC3C[C@H](OC)C(O[C@H]4C[C@H](OC)[C@@H](O)[C@H](C)O4)[C@H](C)O3)[C@@H](C)/C=C/C=C3\CO[C@@H]4[C@H](OC)C(C)=C[C@@H](C(=O)O1)[C@]34O)O2 (stereo partly drawn) | inactive: -1.65 |
| COc1ccc2c(=O)ccoc2c1 | inactive: 3.68 |
| NC(Cc1cccc(-c2ccccc2CP(=O)(O)O)c1)C(=O)O (stereo not drawn) [Phenylbenzene-omega-phosphono-alpha-amino acid] | inactive: 1.61 |
| O=C(O)c1cc(=O)cc(C(=O)O)[nH]1 [Chelidamic acid] | inactive: 2.17 |
| CO/N=C1/C[C@]2(C[C@@H]3C[C@@H](C/C=C(\C)C[C@@H](C)/C=C/C=C4\CO[C@@H]5[C@H](O)C(C)=C[C@@H](C(=O)O3)[C@]45O)O2)O[C@H](/C(C)=C/C(C)C)[C@H]1C | inactive: 2.53 |
| CNCCCN1c2ccccc2CCc2ccccc21.Cl | inactive: 0.207 |
| CNCCCN1c2ccccc2CCc2ccccc21.Cl [Desipramine hydrochloride] | inactive: 4.46 |
| Cc1cc2c(cc1Cl)N(C(=O)Nc1ccc(Oc3cccnc3C)nc1)CC2.Cl.Cl | inactive: -1.88 |
| N#CCCN.N#CCCN.O=C(O)/C=C/C(=O)O [3-Aminopropionitrile fumarate] | inactive: 1.95 |
| O=P1(NCCCl)OCCCN1CCCl (stereo not drawn) | inactive: 2.62 |
| O=P1(NCCCl)OCCCN1CCCl (stereo not drawn) [Ifosfamide] | inactive: 2.4 |
| Cl.OC1CCCCC1N1CCC(c2ccccc2)CC1 (racemic) [(±)-Vesamicol hydrochloride] | inactive: 1.42 |
| NCC(CC(=O)O)c1ccc(Cl)cc1 (racemic) [(±)-Baclofen] | inactive: 1.9 |
| COc1ccc(/C=C/C(=O)Nc2ccccc2C(=O)O)cc1OC [Tranilast] | active: -5.81 |
| CCOc1ccc2nc(S(N)(=O)=O)sc2c1 [Ethoxzolamide] | inactive: 1.32 |
| O=C(O)c1cc(/N=N/c2ccc(S(=O)(=O)Nc3ccccn3)cc2)ccc1O [Sulfasalazine] | inactive: 2.87 |
| O=C(NCC(O)CO)c1c(I)c(C(=O)NCC(O)CO)c(I)c(N(CCO)C(=O)CO)c1I (stereo not drawn) | inactive: 4.48 |
| CC(C)(C)CC(C)(C)c1ccc(O)c(Cc2ccc(Cl)cc2Cl)c1 | inactive: 3.47 |
| CCCCCCOC(=O)NC(=N)c1ccc(NCc2nc3cc(C(=O)N(CCC(=O)OCC)c4ccccn4)ccc3n2C)cc1.CS(=O)(=O)O [Dabigatran Etexilate Mesylate] | inactive: 0.05 |
| CN(C)C(=O)Oc1cccc([N+](C)(C)C)c1.[Br-] [Neostigmine bromide] | inactive: 2.52 |
| CCN(CC)CCOC(=O)c1ccc(N)cc1.Cl [Procaine hydrochloride] | inactive: 3.32 |
| CCN(CC)CCOC(=O)c1ccc(N)cc1.Cl | inactive: 0.419 |

| SMILES | cell-cell fusion (z-score) |
| --- | --- |
| C#CC1(O)CCC2C3CCC4=CC(=O)CCC4(C)C3CCC21C (stereo not drawn) | inactive: 2.54 |
| Cl.N#Cc1ccc(N2CCN(C(=O)COc3ccc4[nH]cc(CCN)c4c3)CC2)cc1 [Donitriptan monohydrochloride] | inactive: 1.07 |
| COc1cc(OC)c(OC)cc1C=O | inactive: 1.18 |
| Nc1ccccc1S(N)(=O)=O | inactive: 1.96 |
| Cc1cc(C2CCCCC2)n(O)c(=O)c1.NCCO | inactive: -0.457 |
| c1coc(CNc2ncnc3[nH]cnc23)c1 | inactive: 3.19 |
| CC(C)c1c(O)c(-c2cc3c(c(C(C)C)c2O)CCC2C(C)(C)CCC[C@]32C)cc2c1CCC1C(C)(C)CCC[C@]21C (stereo partly drawn) | inactive: 2.77 |
| CCCN(CCC)CCc1cccc2c1CC(=O)N2.Cl | inactive: 0.928 |
| Nc1ncnc2c1nc(Br)n2C1OC2CO[P@@](=O)([O-])O[C@@H]2C1O.[Na+] (stereo partly drawn) [8-Bromo-cAMP sodium] | inactive: 1.4 |
| CS(=O)(=O)c1ccc(C2=C(c3ccccc3)C(=O)OC2)cc1 [Rofecoxib] | inactive: 2.23 |
| CC(c1cc2ccccc2s1)N(O)C(N)=O (stereo not drawn) [Zileuton] | inactive: 1.54 |
| CC1(C)O[C@@H]2CC3C4CCC5=CC(=O)C=C[C@]5(C)C4[C@@H](O)C[C@]3(C)[C@]2(C(=O)CO)O1 (stereo partly drawn) | inactive: 2.63 |
| CCOc1ccc(Cc2nccc3cc(OCC)c(OCC)cc23)cc1OCC.Cl | inactive: -0.391 |
| CCCCOc1ccc(OCCCN2CCOCC2)cc1.Cl | inactive: 4.48 |
| COC(=O)c1c(C)c2c(c(C)c1O)OC(=O)c1c(C)c(Cl)c(O)c(Cl)c1O2 | inactive: 1.7 |
| C=CC(C)(O)CC/C=C(\C)CCC=C(C)C (stereo not drawn) | inactive: 2.36 |
| CC(=O)OCC(=O)[C@@]1(O)[C@H](C)C[C@H]2[C@@H]3CCC4=CC(=O)C=C[C@]4(C)[C@@]3(F)[C@@H](O)C[C@@]21C [Dexamethason acetate] | inactive: 4.01 |
| Cl.Cl.NCCCCN [Putrescine dihydrochloride] | inactive: 1.78 |
| Cl.Cl.NCCCCN | inactive: 1.63 |
| N=C1NCC[C@H]([C@@H]2NC(=O)/C(=C/NC(N)=O)NC(=O)[C@H](CNC(=O)CC(N)CCCN)NC(=O)[C@H](CO)NC(=O)[C@@H](N)CNC2=O)N1.O=S(=O)(O)O.O=S(=O)(O)O (stereo partly drawn) [Capastat sulfate] | inactive: 1.99 |
| O=C(O)c1cc(O)c(O)c(O)c1 | inactive: 1.61 |
| Nc1nc(Cl)nc2c1ncn2[C@@H]1O[C@H](COP(=O)([O-])OP(=O)([O-])OP(=O)([O-])[O-])[C@H](O)C1O.[Na+].[Na+].[Na+].[Na+] (stereo partly drawn) [2-Chloroadenosine triphosphate tetrasodium] | inactive: 0.295 |
| C[N+](C)(C)CCOP(=O)([O-])OP(=O)([O-])OC[C@H]1O[C@@H](n2ccc(N)nc2=O)C(O)[C@H]1O.O.O.[Na+] (stereo partly drawn) [Cytidine 5'-diphosphocholine sodium salt hydrate] | inactive: 3.14 |

Another view of part of the listing above.
SMILES	cell-cell fusion (z-score)
N.N.[Cl][Pt][Cl] [Cisplatin]	inactive: 0.564
O=Nc1ccc2oc(=O)ccc2c1 [6-Nitroso-1,2-benzopyrone]	inactive: 2.8
NCC(CC(=O)O)c1ccc(Cl)cc1 (racemic) [(±)-Baclofen]	inactive: 1.9

Copied from the entries so far (2 entries):

| SMILES | cell-cell fusion (z-score) |
| --- | --- |
| CC(=O)Oc1ccc2c(C)cc(=O)oc2c1 | inactive: 2.04 |
| Nc1ccn(C2O[C@H](CO)[C@@H](O)[C@H]2O)c(=O)n1 (stereo partly drawn) | inactive: 2.59 |
